The text below walks through data of PMC4465499.

These are yes or no findings as the source states them, for the method shown. In cells and extracts the contact can be indirect.

The experiment concerns the target BRCA1 of HCC1937 cells (homozygous for a frameshift mutation in BRCA1) (human (endogenous in HCC1937)) (UniProt P38398). The experiment in a line: co-IP; endogenous BRCA1 precipitated from total cell extract (MCF-7 or HCC1937) with anti-BRCA1 monoclonal antibody overnight, Protein A/G PLUS-Agarose 2 h at 4 C, three washes in lysis buffer (20 mM NaCl, 30 mM KCl, 0.1% DTT, 0.5% Triton X-100); immunoblot with anti-ATF1. In general terms: Immunoblotting shows a protein as a band on a membrane.

B1: cyclic AMP-dependent transcription factor ATF1 (protein, UniProt P18846 1-271)
chain: MEDSHKSTTSETAPQPGSAVQGAHISHIAQQVSSLSESEESQDSSDSIGSSQKAHGILARRPSYRKILKDLSSEDTRGRKGDGENSGVSAAVTSMSVPTPIYQTSSGQYIAIAPNGALQLASPGTDGVQGLQTLTMTNSGSTQQGTTILQYAQTSDGQQILVPSNQVVVQTASGDMQTYQIRTTPSATSLPQTVVMTSPVTLTSQTTKTDDPQLKREIRLMKNREAARECRRKKKEYVKCLENRVAVLENQNKTLIEELKTLKDLYSNKSV
As for B1, the binding result was “no binding”.
